# Source: PubChem BioAssay AID1259279 (Sanger Institute, 2017)
# Assay: 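Kinases that colorectal cancer cells need to survive, alone or with drugs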 (primary screen)
# Cells: LS180 human colorectal cancer cells
# Knock-down reagent: siRNA pool against human genes
# Challenge: anchor drug BYL719 at 1 µM, cetuximab at 5 µg/ml or trametinib at 10 nM, or DMSO vehicle only
# Read-out: 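Viability as a fraction of non-targeting control and as a replicate-averaged robust z-score, with separate synergy scores for BYL719, cetuximab and trametinib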
# Direction: viability z-score, no drug: higher = more viable cells after knock-down; viability, no drug: higher = more viable cells; synergy score with BYL719 and synergy score with cetuximab and synergy score with trametinib: higher = stronger synthetic lethal synergy with drug
# Active means: 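a knock-down is called active, meaning essential, if its viability z-score in vehicle alone falls below -3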
# Calls: active = essential (knock-down alone cuts viability); inactive = no change without drug
# The whole screen tested 794 reagents; shown is a random part of them. 11 of them (1.4%) were called active. 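Calls reflect knock-down alone in the vehicle arm, not drug synergy.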 A number with no mark means an inactive call. No viability above 1 is reported: the scale is capped. Not stated in the record: the amount of reagent, the time to read-out.
Target gene,"viability z-score, no drug","viability, no drug (fraction)",synergy score with BYL719,synergy score with cetuximab,synergy score with trametinib
HK1,0.86,1,-0.167,-0.11,-0.0313
KCNH8,0.494,0.96,-0.0536,0.0266,0.11
GATA3,-0.186,0.886,-0.0419,0.0202,-0.169
LCK,0.86,1,-0.0394,0.0189,0.0288
TBCK,0.671,0.979,-0.153,-0.126,-0.0746
PRKCA,-0.534,0.848,-0.124,-0.279,-0.0334
CUL1,0.0165,0.908,-0.228,-0.17,-0.244
PIP4K2C,-1.13,0.783,-0.123,-0.0679,0.0223
RPS6KB1,-0.831,0.816,-0.148,-0.0423,0.00102
WEE1,-2.47,0.637,-0.0207,-0.102,-0.0346
RIPK1,0.86,1,0.00347,-0.127,0.0301
MAP3K11,0.86,1,-0.0904,0.00694,-0.00738
MPP3,-2.31,0.655,-0.0773,-0.0487,0.0368
YES1,0.699,0.982,0.1,-0.0318,0.0186
NTRK1,0.103,0.917,0.0813,0.125,0.0316
MINK1,0.372,0.947,0.0465,0.0334,0.181
PKLR,0.86,1,-0.201,-0.0503,0.177
STK32B,-0.38,0.865,0.0589,-0.00245,-0.0805
STK24,-0.385,0.864,-0.116,-0.239,0.113
MARK4,0.86,1,0.0752,-0.000361,-0.0156
BRWD1,-0.739,0.826,-0.0916,-0.0798,-0.0278
CAMK2D,0.86,1,-0.118,-0.166,-0.122
LATS1,-0.307,0.873,-0.0436,-0.145,-0.0311
FRK,0.86,1,-0.0768,-0.0295,-0.0506
MYO3B,0.0486,0.912,-0.0483,0.064,-0.0131
GRK5,0.86,1,-0.0689,-0.166,-0.0356
SF3B1,-3.61 (active),0.512,-0.117,0.00395,-0.104
CDK3,0.86,1,-0.169,0.0672,-0.0286
MAP4K5,0.332,0.942,-0.16,0.0251,-0.114
PKIB,-0.176,0.887,-0.112,-0.205,-0.105
MAGI3,0.462,0.957,-0.163,-0.0713,0.0521
SLK,0.86,1,-0.00983,-0.0209,-0.0489
PRKCQ,0.354,0.945,0.0619,-0.051,0.145
PRKD2,-0.123,0.893,-0.135,-0.138,0.0343
MYO3A,-0.621,0.838,-0.0219,-0.0742,-0.0575
PIP4K2B,-0.0392,0.902,-0.0462,-0.119,-0.0521
TTK,0.86,1,0.0908,-0.0974,0.000103
ACVR1,-2.39,0.645,-0.156,-0.112,-0.13
CSNK2A2,0.86,1,0.0912,0.188,0.16
PSKH1,-0.492,0.853,-0.159,-0.289,0.0198
NPR2,0.86,1,-0.0327,-0.113,-0.0556
ARAF,0.86,1,-0.0229,-0.0593,-0.0794
GRK6,0.401,0.95,0.0849,0.0981,0.154
AGK,0.276,0.936,-0.0383,-0.186,-0.169
STK31,-0.353,0.868,-0.0137,0.000192,-0.0026
SOS2,-1.42,0.752,-0.29,-0.291,-0.312
CSNK1A1,-0.79,0.82,-0.223,-0.11,-0.0644
APC,0.0902,0.916,-0.137,-0.203,0.049
BCOR,0.86,1,0.153,0.122,0.0385
EPHA7,0.222,0.93,0.042,-0.0258,-0.0274

Single entries from above:
For “viability, no drug (fraction)”, RIPK1 shows 1
Under “synergy score with trametinib”, CUL1 reads -0.244
ARAF, viability z-score, no drug → 0.86
